The target in one assay is Myc-tagged c-Cbl (UniProt P22681). Kind of assay: co-IP; HEK293T co-transfected with Myc-Cbl and Myc-CAP together with control GST or GST-STAP-2; lysed 36 h after transfection; immunoprecipitated with anti-c-Cbl antibody; blots with anti-Myc and anti-GST.
In assay [1] the target is T1, GST-tagged STAP-2 (signal-transducing adaptor protein-2), full (UniProt Q9UGK3).
T1 sequence: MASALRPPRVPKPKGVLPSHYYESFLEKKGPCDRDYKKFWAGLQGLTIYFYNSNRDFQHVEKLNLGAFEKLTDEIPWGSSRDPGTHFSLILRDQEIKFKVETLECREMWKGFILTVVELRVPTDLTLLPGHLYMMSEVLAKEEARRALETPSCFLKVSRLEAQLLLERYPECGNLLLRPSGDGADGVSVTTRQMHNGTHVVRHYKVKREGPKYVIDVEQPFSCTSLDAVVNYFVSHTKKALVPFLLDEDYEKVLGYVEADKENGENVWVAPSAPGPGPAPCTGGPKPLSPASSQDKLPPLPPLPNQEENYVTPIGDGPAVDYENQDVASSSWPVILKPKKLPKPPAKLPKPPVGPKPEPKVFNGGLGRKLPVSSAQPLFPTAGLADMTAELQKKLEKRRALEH
Kind of assay: pull-down; HEK293T co-transfected with Myc-CAP and GST-STAP-2 constructs; lysed 36 h after transfection (50 mM Tris-HCl pH 7.4, 0.15 M NaCl, 1% NP-40); GSH-sepharose 2 h at 4 °C; blots with anti-Myc and anti-GST.

Assay [2] deals with T2, STAP-2, endogenous in 3T3-L1 cells (mouse (endogenous in 3T3-L1)) (UniProt Q8R0L1).
T2 sequence: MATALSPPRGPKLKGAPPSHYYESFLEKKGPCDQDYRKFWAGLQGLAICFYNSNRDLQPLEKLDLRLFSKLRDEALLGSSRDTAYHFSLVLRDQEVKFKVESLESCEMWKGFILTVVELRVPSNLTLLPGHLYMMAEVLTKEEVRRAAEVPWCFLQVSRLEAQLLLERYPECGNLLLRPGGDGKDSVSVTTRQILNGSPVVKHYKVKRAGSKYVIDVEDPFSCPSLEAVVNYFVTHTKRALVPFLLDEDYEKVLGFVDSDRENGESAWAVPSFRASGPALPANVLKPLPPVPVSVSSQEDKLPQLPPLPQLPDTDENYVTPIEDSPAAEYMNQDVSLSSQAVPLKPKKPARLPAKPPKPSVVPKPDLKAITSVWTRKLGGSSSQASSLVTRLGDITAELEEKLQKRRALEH
Kind of assay: co-IP; endogenous proteins; 3T3-L1 lysate on day 6 after adipose differentiation; immunoprecipitated with anti-STAP-2 antibody or normal rabbit IgG; blots with anti-CAP and anti-STAP-2.

Results are given in words; binding and its absence hold for the method and conditions named. In cells and extracts the contact can be indirect. Some results given as binding are weak or reduced against the parent protein; the word gives no strength. For some of these results: Sequences can lack the tags named with a protein.

B1: GST-tagged STAP-2 (signal-transducing adaptor protein-2), full (protein, UniProt Q9UGK3 1-403)
chain: T1 sequence
For the molecule B1, the binding entry with Myc-tagged c-Cbl was “binds”.

B2: Myc-tagged c-Cbl associated protein (CAP) (protein, UniProt Q62417 1-1290)
chain: MSSECDVGSSKAVVNGLASGNHGPDKDMDPTKICTGKGTVTLRASSSYRGTPSSSPVSPQESPKHESKSGLEPEDPSADEWKLSSSADTNGNAQPSPLAAKGYRSVHPSLSADKPQGSPLLNEVSSSHIETDSQDFPPTSRPSSAYPSTTIVNPTIVLLQHNRDPASERRAGEQDPVPTPAELTSPGRASERRAKDASRRVVRSAQDLSDVSTDEVGIPLRNTERSKDWYKTMFKQIHKLNRDDDSDVHSPRYSFSDDTKSPLSVPRSKSEMNYIEGEKVVKRSATLPLPARSSSLKSSPERNDWEPLDKKVDTRKYRAEPKSIYEYQPGKSSVLTNEKMSRDISPEEIDLKNEPWYKFFSELEFGRPTNLEKDLSFCQAELEADLEKVETVNKSPSANSPQSSAVSPTPDITSEPPGYIYSSNFHAVKRESDGTPGGLASLENERQIYKSVLEGGDIPLQGLSGLKRPSSSASTKVDRKGGNAHMISSSSVHSRTFHTSNALGPGCKHKKPLSAAKACISEILPSKFKPRLSAPSALLQEQKSVLLPSEKAQSCENLCVSLNDSKRGLPLRVGGSIENLLMRSRRDYDSKSSSTMSLQEYGTSSRRPCPLSRKAGLHFSMFYRDMHQINRAGLSLGSISSSSVRDLASHFERSSLTLARGELGASQEGSEHIPKHTVSSRITAFEQLIQRSRSMPSLDFSGRLSKSPTPVLSRSGLTSARSAESLLESTKLRPREMDGMDSGGVYASPTCSNMADHALSFRSLVPSEPLSICSDELDHCSNVSNDSREGSGGSVHGDFPKHRLNKCKGTCPASYTRFTTIRKHEQQSSRQSDWRSDSRGDKNSLLRNIHLMSPLPFRLKKPLQQHPRQPPPSDSSESPAGQKADLPCHDPQDQPHSAGKPQVPTRLSSRHTMARLSHNSEPPLDRPAGLEDCTRAINNGNPVPYSDHGLDRNNNPQSELAAAHGDSESPRHFIPADYLESTEEFIRRRHDDKEKLLADQRRLKREQEEADIAARRHTGVIPTHHQFITNERFGDLLNIDDTAKRKSGLEMRPARAKFDFKAQTLKELPLQKGDVVYIYRQIDQNWYEGEHHGRVGIFPRTYIELLPPAEKAQPRKLAPVQVLEYGEAIAKFNFNGDTQVEMSFRKGERITLLRQVDENWYEGRIPGTSRQGIFPITYVDVLKRPLVKTPVDYIDLPYSSSPSRSATVSPQQPQAQQRRVTPDRSQPSLDLCSYQALYSYVPQNDDELELRDGDIVDVMEKCDDGWFVGTSRRTRQFGTFPGNYVKPLYL
In the case of B2, the binding result (with Myc-tagged c-Cbl; in assay [1]) was “binds” each time.

B3: c-Cbl associated protein (CAP), endogenous in 3T3-L1 cells (protein, UniProt Q62417 1-1290)
chain: B2 chain
Regarding B3, the binding result in assay [2] is “binds”.

The values are drawn from publication PMC10925025.
